Data: PubChem BioAssay AID540276 (National Center for Advancing Translational Sciences (NCATS), 2011)
Hit rate of the full screen: of about 300,000 compounds, about 5,400 (1.8%) were called active. The shares of active, inactive and inconclusive entries below differ from those in the screen. Calls follow the shape of the full dose curve; tested in HEK293 cells. Potencies of inconclusive entries are doubtful fits and often do not repeat.
Potency is read from the fitted curve at half-maximal effect.

Experiment: qHTS for inhibitors of binding or entry into cells for Marburg Virus
Conditions: Marburg virus pseudotyped entry inhibition, cell reporter; series mostly up to 37.8 µM
For `N[C@@H](Cc1c[nH]c2ccccc12)c1nnc(SCc2ccccc2F)o1`, the Potency was inconclusive: 8.2 µM [inhibitor, partial curve, poor fit]. In the case of `CCCN(CCC)C(=O)C[C@H](c1ccc(F)cc1)c1ccco1`, the Potency is reported as inconclusive: 20 µM [inhibitor, partial curve, poor fit]. With `Cc1ccccc1C(=O)NC(CC(C)C)C(=O)N1CCN(c2ccccc2)CC1` (configuration not stated) the Potency was inconclusive: 2.82 µM [inhibitor, partial curve, poor fit]. For `CCOc1ccc2oc(C(=O)N(C)CC(=O)Nc3ccc(OCC)c(OCC)c3)c(C)c2c1`, the Potency was “inactive”. In the case of `CC(=O)Nc1ccc(-c2nc3ccccc3c(=O)o2)cc1`, the Potency is reported as “inactive”. In the case of `O=C(Nc1nccs1)C1CC(=O)N(c2ccccc2Cl)C1` (configuration not stated), the Potency is reported as “inactive”. For `Cc1ccc(-c2cc(C(=O)NC3CCCCC3)no2)cc1`, the Potency was inconclusive: 20 µM [activator, partial curve, poor fit]. In the case of `Cc1ccc(-c2cc(C(=O)OCC(=O)N(C)C3CCS(=O)(=O)C3)c3ccccc3n2)o1` (configuration not stated), the Potency is reported as inconclusive: 8.91 µM [inhibitor, partial curve]. In the case of `CCN(CC)CCN(C(=O)c1ccc2c(c1)CCCC2)c1nc2c(C)cccc2s1`, the Potency is reported as inconclusive: 5.01 µM [inhibitor, full curve, poor fit]. For `O=C(NC12CC3CC(CC(C3)C1)C2)N1CCC(O)CC1`, the Potency was “inactive”. In the case of `S=C(Nc1ccc2nc(-c3ccccn3)c(-c3ccccn3)nc2c1)N1CCCCCC1`, the Potency is reported as “inactive”. With `O=[N+]([O-])c1c(NCCCO)cc(Sc2nc3ccccc3s2)c2nonc12` the Potency was inconclusive: 25.9 µM [inhibitor, single point]. For `Cc1ccc(NN=C2C(=O)OC(C)(C)OC2=O)c(C)c1`, the Potency was inconclusive: 3.55 µM [activator, full curve, poor fit]. With `O=C(O)c1ccccc1SC1CC(=O)N(c2ccc3c(c2)OCO3)C1=O` (configuration not stated) the Potency was inconclusive: 5.62 µM [inhibitor, single point]. For `O=C(O)CC1(CC(=O)Nc2ccc3c(c2)OCCCO3)CCCCC1`, the Potency was “inactive”. For `Cn1c(Cc2ccccc2)nnc1SCC(=O)Nc1ccc2c(c1)OCO2`, the Potency was inconclusive: 14.6 µM [inhibitor, partial curve, poor fit]. In the case of `COc1ccccc1NC(=O)N1CCCC1C(=O)NCc1cccs1` (configuration not stated), the Potency is reported as “inactive”. With `C[C@@H](C(=O)N1CCCCC1)N1C(=O)c2ccccc2C1=O` the Potency was inconclusive: 35.5 µM [activator, single point]. For `COc1ccc(Cc2c(C)nn(-c3nc(C)c(C(=O)Nc4cccc(C(C)=O)c4)s3)c2C)cc1`, the Potency was “inactive”. With `O=C(C#Cc1ccccc1)Nc1ccc(F)cc1` the Potency was inconclusive: 35.5 µM [inhibitor, single point]. In the case of `COc1ccc(-c2sc(C(=O)c3ccc(Cl)cc3Cl)cc2CC(=O)O)cc1`, the Potency is reported as inconclusive: 35.5 µM [inhibitor, single point]. With `COc1cc(OC)cc(C(=O)Nc2cccc(C(C)=O)c2)c1` the Potency was “inactive”. In the case of `O=C(C1CC1)N1CCN=C1SCc1ccc(Cl)cc1`, the Potency is reported as inconclusive: 7.94 µM [inhibitor, partial curve]. In the case of `Cc1ccc(NC(=O)CSc2nccn2Cc2ccco2)c(C)c1`, the Potency is reported as inconclusive: 31.6 µM [inhibitor, single point]. In the case of `Clc1cccc(Cl)c1C1Nc2cccc3cccc(c23)N1`, the Potency is reported as inconclusive: 22.4 µM [inhibitor, single point]. In the case of `Cc1cccc(-n2nnc(C(=O)NCc3ccco3)c2N)c1`, the Potency is reported as inconclusive: 5.62 µM [activator, single point]. With `O=C(CN1CCc2ccccc21)NCc1ccccc1Cl` the Potency was inconclusive: 3.55 µM [activator, full curve]. In the case of `Cc1cccc(C)c1NC(=O)CNC(=O)Cc1c[nH]c2ccccc12`, the Potency is reported as “inactive”. With `COc1ccc(O)c(C(=O)c2cnc3c(c2)c(C)nn3C)c1` the Potency was “inactive”. For `CC(C)c1cc(CN2C(C)COCC2C)cc(C(C)C)c1O` (configuration not stated), the Potency was inconclusive: 20 µM [inhibitor, single point]. For `CCS(=O)(=O)c1nc(S(=O)(=O)c2ccc(Cl)cc2)c(NCc2ccc(Cl)cc2)s1`, the Potency was “inactive”. In the case of `CC(=O)c1cccc(S(=O)(=O)N(Cc2cc3cc4c(cc3[nH]c2=O)OCCO4)CC2CCCO2)c1` (configuration not stated), the Potency is reported as “inactive”. In the case of `CCOC(=O)c1sc(NC(=O)/C=C/c2cnn(CC)c2C)c(C(=O)OCC)c1C`, the Potency is reported as inconclusive: 14.6 µM [inhibitor, partial curve, poor fit]. In the case of `O=C(Oc1ccc(/C=N/O)cc1)c1ccccc1`, the Potency is reported as “inactive”. In the case of `CCN1C(=O)c2ccccc2S(=O)(=O)c2ccc(C(=O)NCc3ccc(C)cc3)cc21`, the Potency is reported as “inactive”. For `CCC1CCCCN1S(=O)(=O)c1ccc(C(=O)Nc2nnc(-c3ccccc3Cl)o2)cc1` (configuration not stated), the Potency was inconclusive: 10 µM [inhibitor, partial curve, poor fit]. For `Cc1nc2ccc(S(=O)(=O)NCC(=O)N3CCOCC3)cc2s1`, the Potency was “inactive”. In the case of `Cc1ccc(/C=C2/SC(=S)N(C3CCCCC3)C2=O)o1`, the Potency is reported as “inactive”. In the case of `COc1cccc(-c2cc(C(=O)Nc3cccnc3)no2)c1`, the Potency is reported as inconclusive: 15.8 µM [inhibitor, single point]. With `O=[N+]([O-])/C(C(=C(Cl)Cl)N1CCN(Cc2ccccc2)CC1)=C1\NCCN1Cc1ccc(Cl)nc1` the Potency was inconclusive: 5.62 µM [activator, single point]. For `O=C(OCCOCCN=C1NS(=O)(=O)c2ccccc21)c1ccccc1Br`, the Potency was “inactive”. For `Cc1oc(-c2ccc(Cl)cc2)nc1CS(=O)CC(=O)NCc1ccccc1` (configuration not stated), the Potency was inconclusive: 0.562 µM [inhibitor, partial curve, poor fit]. In the case of `O=C(CSc1oc(-c2ccc(F)cc2)nc1S(=O)(=O)c1ccccc1)c1ccc(Cl)cc1`, the Potency is reported as inconclusive: 35.5 µM [inhibitor, single point]. With `C/C(=N\NC(=O)c1cc(C)nc2ccccc12)c1ccncc1` the Potency was inconclusive: 2.24 µM [inhibitor, full curve]. With `Nc1nc(Nc2ccc(Cl)cc2Cl)nc(C(F)(F)F)n1` the Potency was inconclusive: 3.16 µM [activator, partial curve, poor fit]. In the case of `Cc1cc(OC(C)C(=O)N(Cc2ccco2)Cc2ccco2)cc(C)c1Cl` (configuration not stated), the Potency is reported as inconclusive: 31.6 µM [inhibitor, single point]. For `COc1ccccc1/C=N/Nc1nncc2ccccc12`, the Potency was inconclusive: 7.08 µM [inhibitor, partial curve, poor fit]. For `COc1ccccc1OCC(=O)Nc1cc(Cl)ccc1N1CCCCC1`, the Potency was inconclusive: 0.708 µM [inhibitor, full curve, poor fit]. In the case of `CCn1c(Cn2nnc(-c3ccccc3)n2)nnc1SCC(=O)Nc1ccc(C(C)=O)cc1`, the Potency is reported as inconclusive: 29.1 µM [activator, single point]. In the case of `COc1ccc(C)cc1S(=O)(=O)N(CC(=O)Nc1cccc([N+](=O)[O-])c1)c1ccccc1`, the Potency is reported as inconclusive: 1.03 µM [inhibitor, partial curve, poor fit]. For `COc1ccccc1C(=O)CSc1ccccn1`, the Potency was “inactive”. In the case of `CCN(CC)c1ccc2nc3c(=O)n(C)c(=O)n(C)c3nc2c1`, the Potency is reported as inconclusive: 5.62 µM [activator, single point]. In the case of `CCOC(=O)C(=Cc1ccc(Br)cc1)C(=O)OCC`, the Potency is reported as inconclusive: 7.08 µM [inhibitor, full curve, poor fit]. In the case of `Cc1nn(C)c(C)c1CN(C)C(=O)c1nn2c(c1Br)NC(c1cccs1)CC2C(F)(F)F` (configuration not stated), the Potency is reported as “inactive”. In the case of `Cc1oc2c(cc(NS(=O)(=O)c3cccs3)c3ccccc32)c1C(=O)OC(C)C`, the Potency is reported as “inactive”. For `Cc1nn(CC(=O)N2CCN(c3ccccc3F)CC2)c(=O)c2cccn12`, the Potency was “inactive”. In the case of `Cc1cc(C)n(CCCN2C(=O)c3cccc4cccc(c34)C2=O)n1`, the Potency is reported as inconclusive: 35.5 µM [inhibitor, single point]. For `CCC(C)N(C(=O)CSc1nnc(-c2cccs2)n1C1CC1)C1CCS(=O)(=O)C1` (configuration not stated), the Potency was “inactive”. With `COc1cc(/C=N\n2cnnc2)ccc1OCC(=O)Nc1ccc(C)cc1` the Potency was “inactive”. In the case of `CC(C)(C)OC(=O)N/N=C\c1ccc([N+](=O)[O-])s1`, the Potency is reported as “inactive”. In the case of `Cc1c(Cc2ccccc2)c(=O)oc2c(O)c(O)ccc12`, the Potency is reported as inconclusive: 35.5 µM [inhibitor, single point]. In the case of `CC(C)c1ccc(NC(=O)[C@H]2O[C@@H]3OC(C)(C)O[C@@H]3[C@H]3OC(C)(C)O[C@H]32)cc1`, the Potency is reported as “inactive”. In the case of `O=C1C2C3CCCC3=C3CCCC3C2C(=O)N1c1cccc(Cl)c1` (configuration not stated), the Potency is reported as “inactive”. For `Nc1cc2c(cc1N)-c1ccccc1C2`, the Potency was inconclusive: 12.6 µM [activator, partial curve, poor fit]. For `CCOC(=O)c1ccc(NC(=O)N2CCN(C(=O)C3CCCO3)CC2)cc1` (configuration not stated), the Potency was “inactive”. With `CCN1CCN(CC(O)COC(C)C)CC1` (configuration not stated) the Potency was inconclusive: 5.8 µM [activator, single point]. In the case of `CCCCN(CC)CCCNC(=O)c1ccc2c(c1)N(CC)C(=O)c1ccccc1S2(=O)=O`, the Potency is reported as inconclusive: 12.6 µM [inhibitor, single point]. For `CS(=O)(=O)N1CCN(C(=O)CCc2ccccc2)CC1`, the Potency was inconclusive: 0.251 µM [inhibitor, full curve, poor fit]. With `O=C(Cc1ccccc1)O/N=C1\CCCc2ccccc21` the Potency was inconclusive: 5.01 µM [activator, full curve, poor fit]. In the case of `CCOC(=O)c1ccc(NC(=O)CSc2nc(NC(=O)c3ccccc3)c3c(C)c(C)oc3n2)cc1`, the Potency is reported as inconclusive: 29.1 µM [inhibitor, single point]. For `CCNC(=O)c1ccccc1-c1nc(-c2ccccc2)no1`, the Potency was “inactive”. In the case of `COc1ccc(CCC(=O)N/N=C\c2cccs2)cc1`, the Potency is reported as “inactive”.
